PubChem BioAssay AID1224828 | NIAID | 2016

Screen: 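Knock-downs that increase or decrease LPS-induced p65 nuclear translocation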 (primary screen)
Cell system: mouse RAW264.7 G9 macrophage reporter cells (GFP-p65, Tnf promoter-mCherry)
Reagents: siRNA pool against mouse genes, 100 nM
Timing: 2 days siRNA transfection, then 40 min LPS before fixation
Conditions: LPS (Salmonella minnesota R595) at 10 ng/ml
Measured: 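Imaged p65 nuclear translocation ratio, normalised to the plate median, converted to robust z-scores and averaged across two replicates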
Reading the numbers: p65 translocation robust z-score: higher = more nuclear NF-kappaB p65 after LPS than the plate median; nuclear/cytoplasmic p65 ratio: higher = more nuclear NF-kappaB p65
Active means: 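Called active when z exceeds 3.3 or falls under -1.56 (median of Tlr4 controls), giving activity score of at least 50; no calls for control wells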
Calls: active = hit (p65 shift raised or lowered); inactive = no clear change
Here is an unselected part of about 17,000 reagents tested. In the full data, 762 (4.5%) are marked active. 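Active calls include both raised and lowered p65 entry, mostly lowered; wells with fewer than 50 cells lack a z-score.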 The raw values are shown without normalisation. A number with no mark means an inactive call.

4833432B22RIK [SID315482012]
- nuclear/cytoplasmic p65 ratio, rep 1: 0
- nuclear/cytoplasmic p65 ratio, rep 2: 1.6
- low cell count flag: fewer than 50 cells per well; well left out of scoring

Rhd [SID315468974]
- p65 translocation robust z-score: 2.03
- nuclear/cytoplasmic p65 ratio, rep 1: 1.73
- nuclear/cytoplasmic p65 ratio, rep 2: 1.87
- low cell count flag: enough cells to score

Or1j15 [SID315480279]
- nuclear/cytoplasmic p65 ratio, rep 1: 1.4
- nuclear/cytoplasmic p65 ratio, rep 2: 1.1
- low cell count flag: fewer than 50 cells per well; well left out of scoring

Akap3 [SID315465371]
- p65 translocation robust z-score: -1.74 (active)
- nuclear/cytoplasmic p65 ratio, rep 1: 1.34
- nuclear/cytoplasmic p65 ratio, rep 2: 1.16
- low cell count flag: enough cells to score

Ube2d2a [SID315471608]
- p65 translocation robust z-score: -0.38
- nuclear/cytoplasmic p65 ratio, rep 1: 1.48
- nuclear/cytoplasmic p65 ratio, rep 2: 1.43
- low cell count flag: enough cells to score

2 neighbouring records already listed, quoted:
Akap3 [SID315465371]
- p65 translocation robust z-score: -1.74 (active)
- nuclear/cytoplasmic p65 ratio, rep 1: 1.34
- nuclear/cytoplasmic p65 ratio, rep 2: 1.16
- low cell count flag: enough cells to score

Ube2d2a [SID315471608]
- p65 translocation robust z-score: -0.38
- nuclear/cytoplasmic p65 ratio, rep 1: 1.48
- nuclear/cytoplasmic p65 ratio, rep 2: 1.43
- low cell count flag: enough cells to score

Additional results:
Tnfsf10 [SID315469821]
- p65 translocation robust z-score: -0.44
- nuclear/cytoplasmic p65 ratio, rep 1: 1.45
- nuclear/cytoplasmic p65 ratio, rep 2: 1.46
- low cell count flag: enough cells to score

Acap3 [SID315477128]
- p65 translocation robust z-score: 0.86
- nuclear/cytoplasmic p65 ratio, rep 1: 1.69
- nuclear/cytoplasmic p65 ratio, rep 2: 1.96
- low cell count flag: enough cells to score

Smim5 [SID315472495]
- nuclear/cytoplasmic p65 ratio, rep 1: 1.18
- nuclear/cytoplasmic p65 ratio, rep 2: 1.21
- low cell count flag: fewer than 50 cells per well; well left out of scoring

Dll3 [SID315466335]
- p65 translocation robust z-score: 0.76
- nuclear/cytoplasmic p65 ratio, rep 1: 1.6
- nuclear/cytoplasmic p65 ratio, rep 2: 1.46
- low cell count flag: enough cells to score

Mtch1 [SID315471556]
- p65 translocation robust z-score: 0.48
- nuclear/cytoplasmic p65 ratio, rep 1: 1.49
- nuclear/cytoplasmic p65 ratio, rep 2: 1.41
- low cell count flag: enough cells to score

Cox7a2 [SID315466085]
- p65 translocation robust z-score: 0.43
- nuclear/cytoplasmic p65 ratio, rep 1: 1.53
- nuclear/cytoplasmic p65 ratio, rep 2: 1.97
- low cell count flag: enough cells to score

Vmn1r50 [SID315476980]
- p65 translocation robust z-score: -0.7
- nuclear/cytoplasmic p65 ratio, rep 1: 1.3
- nuclear/cytoplasmic p65 ratio, rep 2: 1.1
- low cell count flag: enough cells to score
